Square brackets hold non-standard residues; d marks the D form. Peptide text beside a SMILES is read from it. Tyr(3-I) = N[C@@H](Cc1ccc(O)c(I)c1)C(=O)O
System: GLP‐2 receptor
Assay: autoradiography in mice
Format: in vivo
Details: WT mice, 2–3 pmol into inferior caval vein

CC[C@H](C)[C@H](NC(=O)[C@H](Cc1ccccc1)NC(=O)[C@H](CC(=O)O)NC(=O)[C@H](CCCNC(=N)N)NC(=O)[C@H](C)NC(=O)[C@H](C)NC(=O)[C@H](CC(C)C)NC(=O)[C@H](CC(N)=O)NC(=O)[C@H](CC(=O)O)NC(=O)[C@H](CC(C)C)NC(=O)[C@@H](NC(=O)[C@@H](NC(=O)[C@H](CC(N)=O)NC(=O)[C@H](Cc1ccc(O)c(I)c1)NC(=O)[C@H](CCC(=O)O)NC(=O)[C@H](CC(=O)O)NC(=O)[C@H](CO)NC(=O)[C@H](Cc1ccccc1)NC(=O)[C@H](CO)NC(=O)CNC(=O)[C@H](CC(=O)O)NC(=O)[C@H](C)NC(=O)[C@@H](N)Cc1c[nH]cn1)[C@@H](C)O)[C@@H](C)CC)C(=O)N[C@@H](CC(N)=O)C(=O)N[C@@H](Cc1c[nH]c2ccccc12)C(=O)N[C@@H](CC(C)C)C(=O)N[C@H](C(=O)N[C@@H](CCC(N)=O)C(=O)N[C@H](C(=O)N[C@@H](CCCCN)C(=O)N[C@H](C(=O)N[C@H](C(=O)N[C@@H](CC(=O)O)C(=O)O)[C@@H](C)O)[C@@H](C)CC)[C@@H](C)O)[C@@H](C)CC [[^125I]‐hGLP‐2(1–33,M10Y)] (H-HADGSFSDE[Tyr(3-I)]NTILDNLAARDFINWLIQTKITD-OH; N-terminus and C-terminus assumed)
labelling of small intestine (fixation after 10 min): strong labelling in the SEMFs of the GI tract
labelling of pancreas (abrogated by unlabelled peptide): in pancreatic islet cells
